{"source": "patent US7534607B1", "about": "“Method of producing cardiomyocytes from mesenchymal stem cells” (Industrial Technology Research Institute, priority 2005, dated 2009)", "tested_on": "porcine mixed MSCs", "test": "Cardio differentiation (myotube formation) of mixed MSCs by differentiation agents", "type": "cell-based", "details": "4 weeks of culture, retinoic acid 10^-9 M", "experimental": "Porcine bone marrow mononucleated cells were purified according to a protocol described by Haynesworth et al (Haynesworth et al., (1992) Bone 13(1), 81-8). Briefly, bone marrows from posterior iliac crest bones of three 6-8 months old Lee-Sung miniature pigs (Luh et al., (2000) Transplantation 69(10), 2019-2027) ([…]) were aspirated into syringes that contained 6,000 unit heparin. The marrow samples were diluted in a ratio of 1:1 with HBSS (Gibco) and loaded onto 1.073 g/mL Ficoll solution (Amersham) in 50 mL centrifugations tubes and were centrifuged at 2,000 rpm for 40 min at room temperature. The mononucleated cells were collected from upper and interface layers, and washed with HBSS (Gibco) twice. Subsequently, the cells were cultured in αMEM (Hyclone) medium containing 100 unit/ml penicillin, 100 μg/ml streptomycin (Gibco) and 20% fetal bovine serum (FBS) from a selected lot (Gibco, Lot No.: 1149239) at 37° C. in humid air with 5% CO2. After a series of continuously cultures, the non-adhesive cells were removed by medium change. Porcine mixed mesenchymal stem cells (MSCs) thus obtained may be used directly in the differentiation experiment of example 1.3 and can be successfully propagated for at least 2 months. […]", "note": "For at least one compound, name, drawing or mass did not settle the structure."}
{"molecule": "CC1=C(/C=C/C(C)=C/C=C/C(C)=C/C(=O)O)C(C)(C)CCC1", "note": "[retinoic acid]", "values": [{"measurement": "effect on cardio differentiation", "result": "no effect on cardio differentiation"}]}
